Experimental data published in article PMC6244289.
No constants are given. Whether binding was seen depends on the method and setting. Binding seen in cells or lysates may run through a third protein. Some binding calls cover weakened binding; strength is not graded here.

Protein sequences, listed by entry. Tags and fused reporters are not part of them.
UniProt Q92538: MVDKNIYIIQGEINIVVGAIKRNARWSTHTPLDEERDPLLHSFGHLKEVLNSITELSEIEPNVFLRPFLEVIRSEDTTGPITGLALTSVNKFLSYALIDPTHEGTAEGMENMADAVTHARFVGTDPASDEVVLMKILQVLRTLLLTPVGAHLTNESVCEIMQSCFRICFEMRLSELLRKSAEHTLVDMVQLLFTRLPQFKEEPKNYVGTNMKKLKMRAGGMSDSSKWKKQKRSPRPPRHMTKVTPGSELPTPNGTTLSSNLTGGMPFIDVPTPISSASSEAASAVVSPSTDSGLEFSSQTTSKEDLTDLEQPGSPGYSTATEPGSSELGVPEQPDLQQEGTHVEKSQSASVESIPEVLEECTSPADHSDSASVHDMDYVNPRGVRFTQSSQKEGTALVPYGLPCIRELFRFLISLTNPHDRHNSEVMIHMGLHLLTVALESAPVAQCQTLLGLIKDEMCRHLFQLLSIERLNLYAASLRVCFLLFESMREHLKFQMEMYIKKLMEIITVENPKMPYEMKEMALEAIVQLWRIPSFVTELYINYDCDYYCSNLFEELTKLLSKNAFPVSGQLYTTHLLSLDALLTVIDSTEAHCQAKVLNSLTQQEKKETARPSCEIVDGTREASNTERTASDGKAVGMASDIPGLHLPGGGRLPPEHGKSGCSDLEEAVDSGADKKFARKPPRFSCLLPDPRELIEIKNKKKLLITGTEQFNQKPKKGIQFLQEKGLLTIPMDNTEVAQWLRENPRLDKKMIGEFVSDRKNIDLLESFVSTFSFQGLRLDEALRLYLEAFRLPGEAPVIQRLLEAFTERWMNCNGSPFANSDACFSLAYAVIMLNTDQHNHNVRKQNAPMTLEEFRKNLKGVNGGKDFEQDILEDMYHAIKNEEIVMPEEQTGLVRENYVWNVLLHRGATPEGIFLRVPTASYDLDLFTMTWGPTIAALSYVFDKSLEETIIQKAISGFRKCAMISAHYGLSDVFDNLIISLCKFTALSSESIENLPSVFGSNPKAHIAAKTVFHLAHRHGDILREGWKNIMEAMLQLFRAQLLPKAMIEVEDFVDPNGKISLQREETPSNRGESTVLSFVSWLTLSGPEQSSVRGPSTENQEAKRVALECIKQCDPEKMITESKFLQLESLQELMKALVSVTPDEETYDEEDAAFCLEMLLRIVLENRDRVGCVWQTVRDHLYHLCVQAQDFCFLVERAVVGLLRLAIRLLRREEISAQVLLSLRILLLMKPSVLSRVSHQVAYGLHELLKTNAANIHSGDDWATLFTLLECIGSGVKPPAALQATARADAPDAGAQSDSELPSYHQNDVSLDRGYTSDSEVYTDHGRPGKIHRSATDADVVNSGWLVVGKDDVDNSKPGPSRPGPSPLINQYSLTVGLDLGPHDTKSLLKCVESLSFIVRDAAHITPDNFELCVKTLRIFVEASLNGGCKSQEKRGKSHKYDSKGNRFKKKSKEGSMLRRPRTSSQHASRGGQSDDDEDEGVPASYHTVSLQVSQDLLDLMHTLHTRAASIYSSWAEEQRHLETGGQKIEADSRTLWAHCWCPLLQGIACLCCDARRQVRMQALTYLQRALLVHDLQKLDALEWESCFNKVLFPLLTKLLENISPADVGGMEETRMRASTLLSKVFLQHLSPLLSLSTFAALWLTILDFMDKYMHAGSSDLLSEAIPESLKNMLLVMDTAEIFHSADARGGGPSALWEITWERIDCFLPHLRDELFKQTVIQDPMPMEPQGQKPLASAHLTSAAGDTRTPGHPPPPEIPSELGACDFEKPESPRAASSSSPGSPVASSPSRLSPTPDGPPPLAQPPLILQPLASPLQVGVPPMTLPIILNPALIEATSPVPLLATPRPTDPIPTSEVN
UniProt Q8IXI2: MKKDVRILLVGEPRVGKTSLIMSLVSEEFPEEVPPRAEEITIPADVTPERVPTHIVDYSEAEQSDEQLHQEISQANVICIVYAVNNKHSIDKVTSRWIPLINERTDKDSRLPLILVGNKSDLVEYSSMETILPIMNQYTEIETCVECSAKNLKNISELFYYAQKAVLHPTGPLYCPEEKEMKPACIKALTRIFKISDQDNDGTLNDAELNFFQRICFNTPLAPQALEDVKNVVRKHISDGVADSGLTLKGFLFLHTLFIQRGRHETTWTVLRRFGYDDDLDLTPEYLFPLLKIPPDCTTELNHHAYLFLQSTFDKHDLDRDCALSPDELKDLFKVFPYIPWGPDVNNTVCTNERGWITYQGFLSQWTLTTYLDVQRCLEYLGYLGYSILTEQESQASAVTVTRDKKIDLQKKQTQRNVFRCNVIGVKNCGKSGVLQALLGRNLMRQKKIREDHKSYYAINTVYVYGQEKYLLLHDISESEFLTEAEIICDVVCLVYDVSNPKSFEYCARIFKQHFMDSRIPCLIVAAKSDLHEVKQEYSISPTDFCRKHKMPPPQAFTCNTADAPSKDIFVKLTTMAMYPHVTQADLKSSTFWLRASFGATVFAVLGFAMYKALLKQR

Target: Venus-GBF1 (human) (UniProt Q92538)
Test: co-IP; RPE1 cells cotransfected with Venus-GBF1 and Myc-Miro1 or Myc-Miro2; lysis in 50 mM Tris-HCl pH 7.5, 100 mM NaCl, 1 mM EDTA, 0.5% NP40; precipitation of Venus-GBF1 with GFP Binding Protein (GBP)-AminoLink resin, 1h30 at 4 °C; Western blot with anti-GFP and anti-Myc

binding: binds
Substance: myc-Miro1 (from UniProt Q8IXI2 1-618)
